Laboratory results as given in US20240199756A1.
Results are given in words; binding and its absence hold for the method and conditions named. Some binding calls cover weakened binding; strength is not graded here. Sequences can lack the tags named with a protein.

Molecular target: T1, D1-Ig (NKp46 domain I fused to Ig) (human), O76036
T1 chain: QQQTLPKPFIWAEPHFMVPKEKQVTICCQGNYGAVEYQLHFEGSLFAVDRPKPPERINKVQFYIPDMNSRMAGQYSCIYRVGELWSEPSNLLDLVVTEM
Assay: BIAcore
Conditions: remark: other sources report otherwise

binding: binds
B1: mouse anti-NKp46 monoclonal antibody 09 (antibody, V domains shown)
VH: EVQLQQSGPELVKPGTSVKISCKTSGYTFTEYSMHWVKQSHGKSLEWFGGISPNSGGTSYNQKFKGKATLTVDKSSSTAYMELRSLTSEDSAVYYCARRDFHSSFDYWGQGTTLTVSS
VL: DIVMTQSPATLSVTPGDRVSLSCRASQSISDYLHWFQQKSHESPRLLIKYASQSISGIPSRFSGSGSGSDFTLSINSVEPEDVGVYYCQNGHSFPLTFGPGTKLELK
